In this assay the target is ORF3 with deleted N terminus (lacking amino acids 1-73), Myc-tagged (ΔN-ORF3-Myc) (porcine epidemic diarrhea virus (PEDV)). The assay is described as follows: co-IP; HEK293T cells co-transfected with the two plasmids, lysed at 24 hpt in IP lysis buffer; cleared lysates with anti-Myc agarose overnight at 4 °C; washed with TBST (25 mM Tris-HCl, 0.15 M NaCl, 0.05% tween 20, pH 7.2); blots with anti-Flag, anti-HA and anti-Myc.

No constants are given. Whether binding was seen depends on the method and setting. Binding seen in cells or lysates may run through a third protein. Binding calls can cover weak binding; strength is not graded here. Tags and fused reporters may be left off the sequences shown.

B1: inhibitor of nuclear factor kappa-B kinase subunit beta with Flag-tag at the C-terminus (IKBKB-Flag) (enzyme, UniProt O14920 1-756)
chain: MSWSPSLTTQTCGAWEMKERLGTGGFGNVIRWHNQETGEQIAIKQCRQELSPRNRERWCLEIQIMRRLTHPNVVAARDVPEGMQNLAPNDLPLLAMEYCQGGDLRKYLNQFENCCGLREGAILTLLSDIASALRYLHENRIIHRDLKPENIVLQQGEQRLIHKIIDLGYAKELDQGSLCTSFVGTLQYLAPELLEQQKYTVTVDYWSFGTLAFECITGFRPFLPNWQPVQWHSKVRQKSEVDIVVSEDLNGTVKFSSSLPYPNNLNSVLAERLEKWLQLMLMWHPRQRGTDPTYGPNGCFKALDDILNLKLVHILNMVTGTIHTYPVTEDESLQSLKARIQQDTGIPEEDQELLQEAGLALIPDKPATQCISDGKLNEGHTLDMDLVFLFDNSKITYETQISPRPQPESVSCILQEPKRNLAFFQLRKVWGQVWHSIQTLKEDCNRLQQGQRAAMMNLLRNNSCLSKMKNSMASMSQQLKAKLDFFKTSIQIDLEKYSEQTEFGITSDKLLLAWREMEQAVELCGRENEVKLLVERMMALQTDIVDLQRSPMGRKQGGTLDDLEEQARELYRRLREKPRDQRTEGDSQEMVRLLLQAIQSFEKKVRVIYTQLSKTVVCKQKALELLPKVEEVVSLMNEDEKTVVRLQEKRQKELWNLLKIACSKVRGPVSGSPDSMNASRLSQPGQLMSQPSTASNSLPEPAKKSEELVAEAHNLCTLLENAIQDTVREQDQSFTALDWSWLQTEEEEHSCLEQAS
Regarding B1, the binding entry is “binds”.

(Values after paper PMC7281231.)
